Results are given in words; binding and its absence hold for the method and conditions named. Binding seen in cells or lysates may run through a third protein. Some results given as binding are weak or reduced against the parent protein; the word gives no strength. Tags and fused reporters may be left off the sequences shown.

Amino acid sequences for entries named in this document (tags omitted).
UniProt P23284: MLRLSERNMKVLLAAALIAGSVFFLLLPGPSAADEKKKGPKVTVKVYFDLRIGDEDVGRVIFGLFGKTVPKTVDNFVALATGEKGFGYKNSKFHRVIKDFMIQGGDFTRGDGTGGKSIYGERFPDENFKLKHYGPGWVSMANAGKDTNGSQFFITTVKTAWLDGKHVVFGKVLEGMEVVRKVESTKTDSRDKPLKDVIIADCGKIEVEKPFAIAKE

Assay [1] addresses T1, recombinant GST fusion protein of CsA associated helicase-like protein (CAHL), full length (human) (UniProt Q9H6S0).
T1 sequence: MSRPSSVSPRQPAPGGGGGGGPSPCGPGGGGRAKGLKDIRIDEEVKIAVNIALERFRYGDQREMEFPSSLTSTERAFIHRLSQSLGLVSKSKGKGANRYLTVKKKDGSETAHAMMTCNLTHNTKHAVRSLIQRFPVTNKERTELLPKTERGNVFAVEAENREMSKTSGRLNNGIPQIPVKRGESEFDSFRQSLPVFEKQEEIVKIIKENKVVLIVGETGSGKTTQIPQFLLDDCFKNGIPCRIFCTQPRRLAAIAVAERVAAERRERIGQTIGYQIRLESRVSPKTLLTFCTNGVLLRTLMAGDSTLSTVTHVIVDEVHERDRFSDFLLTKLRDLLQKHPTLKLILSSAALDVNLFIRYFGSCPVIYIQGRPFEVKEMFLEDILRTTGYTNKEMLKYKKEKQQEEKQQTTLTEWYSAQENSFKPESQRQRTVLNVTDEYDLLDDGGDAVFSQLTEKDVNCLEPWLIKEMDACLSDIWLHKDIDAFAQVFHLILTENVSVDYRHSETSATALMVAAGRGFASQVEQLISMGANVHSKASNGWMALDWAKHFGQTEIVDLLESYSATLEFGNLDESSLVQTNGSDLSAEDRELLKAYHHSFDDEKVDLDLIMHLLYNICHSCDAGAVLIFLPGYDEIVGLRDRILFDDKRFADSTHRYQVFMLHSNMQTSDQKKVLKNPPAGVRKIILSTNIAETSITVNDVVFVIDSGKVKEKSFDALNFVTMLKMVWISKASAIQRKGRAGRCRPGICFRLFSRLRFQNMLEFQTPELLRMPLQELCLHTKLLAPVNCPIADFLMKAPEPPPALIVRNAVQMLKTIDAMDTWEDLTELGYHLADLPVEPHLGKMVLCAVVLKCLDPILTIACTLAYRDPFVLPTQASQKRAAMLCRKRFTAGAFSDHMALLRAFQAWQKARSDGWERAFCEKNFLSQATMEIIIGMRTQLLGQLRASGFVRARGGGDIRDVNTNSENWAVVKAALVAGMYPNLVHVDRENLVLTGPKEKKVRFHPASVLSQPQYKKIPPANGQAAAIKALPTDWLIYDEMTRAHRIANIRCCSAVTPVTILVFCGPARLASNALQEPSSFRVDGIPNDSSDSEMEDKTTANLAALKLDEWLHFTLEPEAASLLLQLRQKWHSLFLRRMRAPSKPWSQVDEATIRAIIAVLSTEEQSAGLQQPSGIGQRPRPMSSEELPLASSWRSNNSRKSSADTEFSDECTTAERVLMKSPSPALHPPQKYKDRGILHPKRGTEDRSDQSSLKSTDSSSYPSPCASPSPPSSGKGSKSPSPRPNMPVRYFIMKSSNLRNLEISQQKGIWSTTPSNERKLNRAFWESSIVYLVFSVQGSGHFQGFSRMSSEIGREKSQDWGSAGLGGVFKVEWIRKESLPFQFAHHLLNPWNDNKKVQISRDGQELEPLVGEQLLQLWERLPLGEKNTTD
The assay can be described thus: pull-down; GST pull-down with GST-CAHL and in vitro translated protein in the presence of CsA (1, 2, 8 and 20 µg/ml); only the target purified.

The target of assay [2] is T1, recombinant GST fusion protein of CsA associated helicase-like protein (CAHL), full length (human). The assay can be described thus: pull-down; GST pull-down: recombinant GST-CAHL incubated with [35S]-labelled in vitro translation products; GST as negative control; no CsA; only the target purified.

For the substance “cyclophilin B, in vitro translated (from UniProt P23284 1-216)”, the binding entry in assay [1] was “no binding (condition: with CsA (1, 2, 8 and 20 µg/ml))”; in assay [2] it was “binds”.
